Test results reported in publication PMC3814058.
Results are given in words; binding and its absence hold for the method and conditions named.

Experiments:
[1] = biological target: GFP–STIM2K (GFP fused to residues 720–746 of human STIM2, K-rich domain), reduced monomer (human) (UniProt Q9P246); assay: reducing SDS/PAGE; as a2 but separated under reducing conditions (DTT); both purified
GFP–STIM2K–C725A (human) = GFP–STIM2K–C725A (human) (UniProt Q9P246); assay: non-reducing SDS/PAGE; overnight dialysis at 4°C against non-reducing (DTT-free) HK buffer, non-reducing sample buffer, 65°C 5 min, Coomassie stain; disulphide-linked dimer; both purified

| binding (GFP–STIM2K–C725A (human)) | Substance | binding [1] |
| --- | --- | --- |
|  | GFP–STIM2K (GFP fused to residues 720–746 of human STIM2, K-rich domain), reduced monomer (from UniProt Q9P246-1 720-746) (domain or fragment) | no binding (condition: under reducing conditions (DTT)) |
| no binding | GFP–STIM2K–C725A (from UniProt Q9P246-1 720-746) (domain or fragment) |  |
